Results are given in words; binding and its absence hold for the method and conditions named. For part of these data: Binding can be weak; no strength is given. For part of these data: Binding seen in cells or lysates may run through a third protein. For part of these data: Tags and fused reporters may be left off the sequences shown.
Legend:
[1] = target: T1, ovarian tumor domain (OTU)-containing deubiquitilating enzyme 2 (OTU2), bait in pGBKT7 (A. thaliana) (UniProt Q9LPT6); experiment: two-hybrid; OTU2 (or its truncated derivatives) in pGBKT7 as bait, candidates in pGADT7 as prey; Y2H golden yeast cells; SD-Trp-Leu-His-Ade with X-alpha-Gal and aureobasidin A
T1 sequence: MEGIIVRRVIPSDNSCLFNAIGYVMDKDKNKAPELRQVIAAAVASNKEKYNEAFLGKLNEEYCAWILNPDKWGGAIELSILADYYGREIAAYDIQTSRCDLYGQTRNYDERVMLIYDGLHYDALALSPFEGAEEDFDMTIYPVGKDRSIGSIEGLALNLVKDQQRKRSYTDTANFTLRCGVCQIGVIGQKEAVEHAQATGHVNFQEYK

By UniProt entry, the sequences of proteins in these tests, tags left out. Where a name states a change or a piece, a line headed by the entry shows the natural chain unless it says otherwise.
UniProt P43297: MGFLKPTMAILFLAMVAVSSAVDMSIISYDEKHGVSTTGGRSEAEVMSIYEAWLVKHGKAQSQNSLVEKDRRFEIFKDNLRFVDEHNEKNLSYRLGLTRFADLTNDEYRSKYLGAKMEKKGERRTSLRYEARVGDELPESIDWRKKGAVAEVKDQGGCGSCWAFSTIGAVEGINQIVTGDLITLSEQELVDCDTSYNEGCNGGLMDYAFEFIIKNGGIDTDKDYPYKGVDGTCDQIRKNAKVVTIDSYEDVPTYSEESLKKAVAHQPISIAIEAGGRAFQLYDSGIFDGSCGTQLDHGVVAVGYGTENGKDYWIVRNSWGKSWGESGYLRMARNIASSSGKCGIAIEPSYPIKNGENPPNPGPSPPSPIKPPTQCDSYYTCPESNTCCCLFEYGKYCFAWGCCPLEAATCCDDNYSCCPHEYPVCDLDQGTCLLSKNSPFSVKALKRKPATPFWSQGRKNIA

[2] = target: T2, OTU2n (11-123 aa) (A. thaliana) (UniProt Q9LPT6); experiment: as above
T2 sequence: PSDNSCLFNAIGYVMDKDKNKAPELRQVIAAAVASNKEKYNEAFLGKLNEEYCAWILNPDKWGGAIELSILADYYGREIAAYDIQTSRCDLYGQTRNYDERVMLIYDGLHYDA

[3] = target: T3, OTU2c (124-208 aa) (A. thaliana) (UniProt Q9LPT6); experiment: as above
T3 sequence: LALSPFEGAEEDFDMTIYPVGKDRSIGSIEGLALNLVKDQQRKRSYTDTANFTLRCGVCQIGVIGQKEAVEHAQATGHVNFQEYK

[4] = target: RD21A in the first multiple cloning site of pBridge (A. thaliana) (UniProt P43297); experiment: two-hybrid; yeast three-hybrid: RD21A in the first site of pBridge, OTU2 in the second site or not, PbE3-2 without signal peptide in pGADT7; SD-Trp-Leu-His-Met with X-alpha-Gal and aureobasidin A
[5] = target: RD21A-FLAG (A. thaliana) (UniProt P43297); experiment: co-IP; RD21A-FLAG and PbE3-2-GFP co-expressed with OTU2-Myc or Ev-Myc in N. benthamiana leaves; IP with anti-GFP agarose beads, detection with anti-FLAG antibody

In the case of “PbE3-2 without a signal peptide, prey in pGADT7 (Plasmodiophora brassicae) (enzyme)”, the binding [1] is reported as “no binding”.

“RD21A without signal peptide, prey in pGADT7 (from UniProt P43297) (enzyme)” was tested, and the binding [2] was “no binding”, the binding [3] was “binds” and the binding [1] was “binds”.

B1: OTU2 in the second multiple cloning site of pBridge (enzyme, UniProt Q9LPT6 1-208)
chain: T1 sequence
For B1, the binding [4] was “binds”.

B2: OTU2-Myc (enzyme, UniProt Q9LPT6 1-208)
chain: T1 sequence
For B2, the binding [5] was “binds”.

Source: paper PMC11995443
